This note sets out measurements from patent publication US7968103B2, “Compositions comprising fetal hemoglobin and bacterial endotoxin and optionally additional fetal liver components” (priority 2003, dated 2011).

Chains of the proteins cited; added tags and fusions are not shown. Lines headed by an entry give the natural chain unless they say otherwise; changes in a name come on top. A line that says so, or that is headed by a name, gives the form on record, which may keep a tag or linker.
UniProt P0CH25: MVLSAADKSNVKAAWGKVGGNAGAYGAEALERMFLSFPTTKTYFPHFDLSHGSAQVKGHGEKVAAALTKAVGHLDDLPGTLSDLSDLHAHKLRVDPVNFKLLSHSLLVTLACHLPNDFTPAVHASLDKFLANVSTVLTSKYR
human haptoglobin (phenotype 1-1) (P00738, form named): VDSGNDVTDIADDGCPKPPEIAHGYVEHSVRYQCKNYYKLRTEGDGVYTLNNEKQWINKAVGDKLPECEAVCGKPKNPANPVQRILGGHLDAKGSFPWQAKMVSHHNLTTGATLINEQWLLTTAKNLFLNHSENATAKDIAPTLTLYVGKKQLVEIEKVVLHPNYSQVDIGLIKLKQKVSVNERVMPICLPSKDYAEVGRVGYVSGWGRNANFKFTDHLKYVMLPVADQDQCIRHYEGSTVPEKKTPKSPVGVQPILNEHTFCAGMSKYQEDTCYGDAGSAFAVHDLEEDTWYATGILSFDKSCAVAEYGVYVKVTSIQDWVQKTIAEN

No constants are given. Whether binding was seen depends on the method and setting. Some binding calls cover weakened binding; strength is not graded here.

The target in assay [1] is fetal ovine hemoglobin (HbF) present in CLP1b (sheep) (UniProt P0CH25). Put plainly: preincubation of CLP1b with haptoglobin before the LPS plate adsorption assay; SDS-PAGE.
The target is the same in assay [2]. Put plainly: hemoglobin-directed depletion with haptoglobin before the LPS plate adsorption assay; SDS-PAGE with silver staining.

Consider “human haptoglobin (phenotype 1-1) (from UniProt P00738 19-347)”, for which the binding result in assay [1] and in assay [2] was “binds” each time.
